From the supplement of paper PMC7411640
Where a name gives a salt, the structure may show the parent alone. The list shows a part of the results. Most values lie within the scatter of the assay; repeated measurements hardly agree.

System: MDA-MB-468
Test: phospho-S6 immunofluorescence (DAPI-normalised), per-plate z-score; higher = higher phospho-S6 signal (less pathway suppression)
Conditions: 24 h
Description: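 GPCR-targeted compound library (MedChemExpress HY-L006) tested on MDA-MB-468 PTEN-null TNBC cells in 384-well plates at 0.1, 1 or 10 uM, combined with vehicle, GDC0941 450 nM or lapatinib 1 uM, for 24 h. Phospho-S6 (S240/244) immunofluorescence normalised to DAPI and expressed as a per-plate z-score; values are the mean of biological triplicates.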

[1] = compound 0.1 µM, co-treatment: GDC0941 450 nM
[2] = compound 0.1 µM, co-treatment: lapatinib 1 uM
[3] = compound 0.1 µM, co-treatment: vehicle
[4] = compound 1 µM, co-treatment: GDC0941 450 nM
[5] = compound 1 µM, co-treatment: lapatinib 1 uM
[6] = compound 1 µM, co-treatment: vehicle
[7] = compound 10 µM, co-treatment: GDC0941 450 nM
[8] = compound 10 µM, co-treatment: lapatinib 1 uM
[9] = compound 10 µM, co-treatment: vehicle

| Structure (SMILES) | phospho-S6 immunofluorescence (z-score) [1] | phospho-S6 immunofluorescence (z-score) [2] | phospho-S6 immunofluorescence (z-score) [3] | phospho-S6 immunofluorescence (z-score) [4] | phospho-S6 immunofluorescence (z-score) [5] | phospho-S6 immunofluorescence (z-score) [6] | phospho-S6 immunofluorescence (z-score) [7] | phospho-S6 immunofluorescence (z-score) [8] | phospho-S6 immunofluorescence (z-score) [9] |
| --- | --- | --- | --- | --- | --- | --- | --- | --- | --- |
| N#Cc1ccc2[nH]cc(CCCCN3CCN(c4ccc5oc(C(N)=O)cc5c4)CC3)c2c1 [Vilazodone (Hydrochloride)] | -0.94 | 0.69 | -0.15 | 0.14 | -0.82 | -0.09 | -0.01 | -0.76 | 0.65 |
| CN(C)CCOC(C)(c1ccccc1)c1ccccn1 (stereo not drawn) [Doxylamine (succinate)] | 0.4 | -0.56 | -0.14 | -0.07 | -0.71 | 0.03 | 0.33 | -0.64 | 0.58 |
| CNC(=C[N+](=O)[O-])NCCSCc1csc(CN(C)C)n1 [Nizatidine] | 1.32 | 1.4 | -0.28 | -0.24 | 0.85 | -0.08 | -1.38 | 0.52 | 1.38 |
| Cn1c(SCC(=O)N2CCC[C@H]2C(=O)Nc2ccccc2-c2ccccc2)nc2ccccc21 | -1.37 | 0.56 | -0.58 | 0.28 | 0.62 | 0.33 | 0.08 | 1.59 | 0.81 |
| CCn1c(=O)c2c(nc(/C=C/c3ccc(OC)c(OC)c3)n2C)n(CC)c1=O [Istradefylline] | 0.73 | 0.96 | 0.26 | 0.87 | 1.28 | 1.94 | 0.2 | 0.09 | -0.74 |
| CC(C)C[C@H](NC(=O)[C@H](CC(C)C)NC(=O)[C@H](Cc1ccccc1)NC(=O)[C@@H](N)CO)C(=O)N[C@@H](CCCN=C(N)N)C(=O)N[C@@H](CC(N)=O)C(=O)O | -0.12 | 0.4 | 0.22 | -0.12 | -0.24 | -0.11 | -1.01 | -0.25 | 0.03 |
| O=S(=O)(c1ccccc1)c1cnc2c(N3CCNCC3)cccc2c1 | -0.1 | -0.81 | -0.12 | -0.38 | -1.47 | 0.52 | 0.13 | -2.25 | 0.76 |
| CC(C)NCC(O)COc1ccc(CCOCC2CC2)cc1 (stereo not drawn) [Betaxolol (hydrochloride)] | -0.2 | -0.16 | -0.02 | 1.44 | -0.42 | 0.79 | 0.79 | 0.07 | 0.74 |
| Cc1ccc(F)cc1C(=O)Nc1ccc(C(=O)N2Cc3cccn3Cc3ccccc32)c(Cl)c1 [Lixivaptan] | -0.16 | 0.6 | -0.06 | -1.4 | 0 | -0.41 | -2.79 | -0.79 | 0.62 |
| CC(O)Cn1cnc2c1c(=O)n(C)c(=O)n2C (stereo not drawn) [Proxyphylline] | -0.49 | 0.45 | -0.6 | -0.37 | -0.02 | -0.54 | 0.64 | 0.19 | -0.72 |
| CC(C)=CCC[C@](C)(O)[C@H]1CC[C@]2(C)[C@@H]1[C@H](O)C[C@@H]1[C@@]3(C)CC[C@H](O)C(C)(C)[C@@H]3[C@@H](O)C[C@]12C [(20S)-Protopanaxatriol] | 0.57 | 0.58 | 0.72 | 0.3 | -0.55 | 0.16 | -1.71 | -2.12 | -0.03 |
| Cc1cccc(C#Cc2ccccc2)n1 [MPEP (Hydrochloride)] | -0.69 | -0.63 | -1.07 | -1.33 | -0.82 | -1.21 | -0.92 | 0.68 | -0.14 |
| CC(C)(C(=O)O)c1ccc(C(O)CCCN2CCC(C(O)(c3ccccc3)c3ccccc3)CC2)cc1 (stereo not drawn) [Fexofenadine (hydrochloride)] | 0.36 | -1.12 | -0.52 | -0.17 | -0.42 | -0.93 | -0.31 | -0.84 | -0.42 |
| COc1cc2c(NC3CCN(C(C)C)CC3)nc(N3CCC(F)(F)CC3)nc2cc1OCCCN1CCCC1 | 0.8 | 0.03 | 0.85 | 2.32 | -0.29 | 1.18 | 1.81 | 3.34 | 1.97 |
| Cc1ccc(C(=O)Nc2ccc(S(=O)(=O)O)c3cc(S(=O)(=O)O)cc(S(=O)(=O)O)c23)cc1NC(=O)c1cccc(NC(=O)Nc2cccc(C(=O)Nc3cc(C(=O)Nc4ccc(S(=O)(=O)O)c5cc(S(=O)(=O)O)cc(S(=O)(=O)O)c45)ccc3C)c2)c1 [Suramin (sodium salt)] | -0.02 | -0.56 | -0.76 | -0.2 | -0.35 | -0.23 | 0.54 | 1.39 | -0.09 |
| NCCCC[C@H](NC(=O)[C@@H]1CCCN1C(=O)[C@@H]1CSSC[C@H](NC(=O)CNC(=O)CNC(=O)CN)C(=O)N[C@@H](Cc2ccc(O)cc2)C(=O)N[C@@H](Cc2ccccc2)C(=O)N[C@@H](CCC(N)=O)C(=O)N[C@@H](CC(N)=O)C(=O)N1)C(=O)NCC(N)=O [Terlipressin] | -0.33 | 1.22 | 0.1 | -0.25 | 1.31 | 0.17 | 0.05 | 0.98 | 0.08 |
| O=C1NCC2(CCN(CCc3ccccc3)CC2)O1 [Fenspiride (Hydrochloride)] | 1.85 | -0.71 | 1.02 | 0.55 | -0.08 | 0 | 0.59 | 0.67 | 1.01 |

Just phospho-S6 immunofluorescence (z-score) [4], for some of the entries so far:
Structure (SMILES) | phospho-S6 immunofluorescence (z-score) [4]
Cc1ccc(F)cc1C(=O)Nc1ccc(C(=O)N2Cc3cccn3Cc3ccccc32)c(Cl)c1 [Lixivaptan] | -1.4
CC(O)Cn1cnc2c1c(=O)n(C)c(=O)n2C (stereo not drawn) [Proxyphylline] | -0.37
